No constants are given. Whether binding was seen depends on the method and setting. For some of these results: Binding can be weak; no strength is given.

Experiment in all cases: two-hybrid
Assay [1] has as its target N-terminal domain (A/B) of TR2, two-hybrid bait.
Assay [2] concerns the target ligand binding domain (LBD; EF domains) of TR2, two-hybrid bait.
For assay [3], the target named is ligand binding domain (LBD; EF domains) of TR4, two-hybrid bait.
Assay [4] addresses N-terminal domain (A/B) of TR4, two-hybrid bait.

B1: NCoR1 carboxy-terminal (C) domain (NCoR1-C) (domain or fragment, UniProt Q60974 1630-2453)
chain: QVNLRPDVTRGLSPREQPLGLPYPATRGIIDLTNMPPTILVPHAGGTSTPPMDRITYIPGTQVTFPPRPYNAASLSPGHPTHLAAAASAEREREREREKERERERERERERERERIAAAPADLYLRPGSEQPGRPGSHGYVRSPSPSVRTQETILQQRPSVFQGTNGTSVITPLDPTAQLRIMPLPSGGPSISQGLPASRYNTAADALAALVDAAASAPQMDVSKTKESKHEAARLEENLRSRSAAVSEQQQLEQKNLEVEKRSVQCVCTSSALPSGKAQPHASVVYSEAGKDKGPPPKSRYEEELRTRGKTTITAANFIDVIITRQIASDKDARERGSQSSDSSSSLSSHRYETASDAIEVISPASSPAPPQEKPQAYQPDMVKANQAENESTRQYEGPLHHYRSQQESPSPQQQPPLPPSSQSEGMGQVPRTHRLITLADHICQIITQDFARNQVPSQASTSTFQTSPSALSSTPVRTKTSSRYSPESQSQTVLHPRPGPRVSPENLVDKSRGSRPGKSPERSHIPSEPYEPISPPQGPAVHEKQDSMLLLSQRGVDPAEQRSDSRSPGSISYLPSFFTKLESTSPMVKSKKQEIFRKLNSSGGGDSDMAAAQPGTEIFNLPAVTTSGAVSSRSHSFADPASNLGLEDIIRKALMGSFDDKVEDHGVVMSHPVGIMPGSASTSVVTSSEARRDEGEPSPHAGVCKPKLINKSNSRKSKSPIPGQSYLGTERPSSVSSVHSEGDYHRQTPGWAWEDRPSSTGSTQFPYNPLTIRMLSSTPPTQIACAPSAITQAAPHQQNRIWEREPAPLLSAQYETLSDSDD
Take B1: the binding result in assay [1] is on record as “no binding”; in assay [2], “binds”; in assay [3] it was “binds”; in assay [4], “binds”.

For the origin of these results see publication doi:10.1101/346619.
